Measurements reported in PubChem BioAssay AID1224830 (NIAID, 2016).
Screen: 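Genes whose knock-down alters the TNF-alpha reporter response to LPS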 (primary screen). Cells: human THP-1 monocytic leukaemia cells, TNF dual-luciferase reporter clone, PMA-differentiated to macrophage-like cells. Reagent: siRNA pool against human genes, 50 nM. Timing: LPS for 4 h, given about 3 days after siRNA transfection. Treatment: bacterial LPS (TLR4 ligand), 10 ng/ml. Read-out: 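Ratio of firefly to renilla light, scaled to the plate median and expressed as a robust z-score per replicate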. Reading the numbers: TNF reporter robust z-score: higher = stronger TNF reporter response to LPS. Rule for the call: 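a well is active when its z-score exceeds 2.8 or falls below -1.5; control wells carry no call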.
The deposit covers about 18,000 reagents; shown is an unselected part. About 2,900 of them (16%) were called active. 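Calls are made per well; low scores hint the gene aids the LPS response, high scores that it dampens it.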 Repeated entries: four replicate wells of each siRNA pool.

The first 3 entries, to show the layout:
TNF reporter robust z-score	Call	gene symbol
0.98	inactive	SERINC2 (GeneID 347735)
1.12	inactive	SERINC2 (GeneID 347735)
1.25	inactive	SERINC2 (GeneID 347735)

The listing, from the first entry:
TNF reporter robust z-score	Call	gene symbol
0.98	inactive	SERINC2 (GeneID 347735)
1.12	inactive	SERINC2 (GeneID 347735)
1.25	inactive	SERINC2 (GeneID 347735)
2.24	inactive	SERINC2 (GeneID 347735)
-0.58	inactive	MTR (GeneID 4548)
-0.54	inactive	MTR (GeneID 4548)
-0.37	inactive	MTR (GeneID 4548)
-0.7	inactive	MTR (GeneID 4548)
-1.18	inactive	RGS1 (GeneID 5996)
-0.81	inactive	RGS1 (GeneID 5996)
0.23	inactive	RGS1 (GeneID 5996)
-0.49	inactive	RGS1 (GeneID 5996)
-1.52	active	STAT1 (GeneID 6772)
-1.5	inactive	STAT1 (GeneID 6772)
-1.39	inactive	STAT1 (GeneID 6772)
-0.59	inactive	STAT1 (GeneID 6772)
-0.13	inactive	BDKRB2 (GeneID 624)
-0.7	inactive	BDKRB2 (GeneID 624)
-0.62	inactive	BDKRB2 (GeneID 624)
-0.79	inactive	BDKRB2 (GeneID 624)
-0.64	inactive	IFNGR1 (GeneID 3459)
-0.17	inactive	IFNGR1 (GeneID 3459)
0.66	inactive	IFNGR1 (GeneID 3459)
1.89	inactive	IFNGR1 (GeneID 3459)
-1.29	inactive	PRPF38A (GeneID 84950)
-1.48	inactive	PRPF38A (GeneID 84950)
-1.32	inactive	PRPF38A (GeneID 84950)
-1.46	inactive	PRPF38A (GeneID 84950)
-0.41	inactive	FBXO42 (GeneID 54455)
-0.58	inactive	FBXO42 (GeneID 54455)
-1.76	active	FBXO42 (GeneID 54455)
-0.47	inactive	FBXO42 (GeneID 54455)
-0.46	inactive	JDP2 (GeneID 122953)
0.08	inactive	JDP2 (GeneID 122953)
-0.52	inactive	JDP2 (GeneID 122953)
-0.21	inactive	JDP2 (GeneID 122953)
-0.62	inactive	C2CD5 (GeneID 9847)
0.21	inactive	C2CD5 (GeneID 9847)
-0.95	inactive	C2CD5 (GeneID 9847)
0.45	inactive	C2CD5 (GeneID 9847)
-0.93	inactive	ADGRG4 (GeneID 139378)
-0.1	inactive	ADGRG4 (GeneID 139378)
-0.79	inactive	ADGRG4 (GeneID 139378)
-0.38	inactive	ADGRG4 (GeneID 139378)
-0.38	inactive	METTL6 (GeneID 131965)
0.17	inactive	METTL6 (GeneID 131965)
-0.49	inactive	METTL6 (GeneID 131965)
-0.31	inactive	METTL6 (GeneID 131965)
